Assay results: US20150157682A1, “VALERIAN EXTRACTS AND USES THEREOF” (priority 2012, published 2015)
At least one structure is not confirmed: it was looked up by name or label, or the drawing left a doubt.

Target: benzodiazepine receptors (3H-flunitrazepam labelled binding sites)
Test: 3H-flunitrazepam competition binding assay, crude synaptosomal membranes of rat frontal cortex
Conditions: 1 nM 3H-flunitrazepam

Work on `CNC1=Nc2ccc(Cl)cc2C(c2ccccc2)=[N+]([O-])C1` [Chlordiazepoxide, chlordiazepoxide] yielded an EC50 of 640 ± 80 nM.
